Most values lie at the floor of the assay. Slopes are relative: functional sequences can read slightly below zero.

This data set concerns Saccharomyces cerevisiae PS128 hsf1 delta, HSF1(1-493) fusion. Nature of the data set: growth estimate (transactivation domain function in HSF1 fusion, heat-shock survival) (a.u. (slope of normalised read count over time)); higher = stronger growth at 37°C, i.e. more transactivation activity. Conditions: library: random library.
For KCGISESYHLR, the growth estimate was below -0.25. Take NLECDRCTR: the growth estimate is below -0.25. As to RDAARPNVTVPGALPPTYWA, the growth estimate was below -0.25.

In the case of SAVLLNMVM, the growth estimate is below -0.25. The figure for YRGDMKEPQWPDSRVERTRT is below -0.25. As to EKDPLQGLLRLANWPGPGSS, the growth estimate is below -0.25.

Take IGDVSRPWPYSRVRACKRRC: the growth estimate was below -0.25. The figure for LASME is below -0.25. For SYTLI, the growth estimate was below -0.25. The figure for VSVVEASTARVNVDSVPSSK is below -0.25; for LVLRGLNARSF it is below -0.25.

As to YLVDDLLRQPATGDGGRI, the growth estimate was -0.248.

With NIVLPDAYCILLRWWD, the growth estimate was below -0.25. The figure for RSVCCDHDVIKRQAIWF is below -0.25. With TGMRGGVNSLVPVRPPTTW, the growth estimate is below -0.25. As for LGQCCRARILTCDW, the growth estimate was below -0.25. As to AALSSLRLQSTHMR, the growth estimate was below -0.25. Take LWGFGYMTGPNRINVLLGPC: the growth estimate was below -0.25. As for IVS, the growth estimate is below -0.25.

MAVPPSDVTDRVR: the growth estimate is below -0.25.

In the case of MCNQSAHRRSSGRAMAMRIF, the growth estimate is -0.25. On to LFLSFKSICGSGLLLTIARL, for which the growth estimate was below -0.25. NICIGGYELCPWAEETQARL: the growth estimate is below -0.25. As for RGDANLNLVADLYQKRDWLV, the growth estimate was below -0.25. On to WYVALPALSRRSYLVKISPA, for which the growth estimate was below -0.25.

On to NGGWREKGYFRCKGRALVHC, for which the growth estimate was below -0.25.

Regarding TLIPSLGIGGTQGHTFPSPG, the growth estimate is below -0.25. For QSRSWVPPEDSSWYCQLRTP, the growth estimate is below -0.25. Take KVSYIQSLTLIPVRL: the growth estimate was below -0.25. For RGILPGWFLALNVCMSAVMW, the growth estimate was below -0.25.

As for PPVLTVDD, the growth estimate was below -0.25. For the substance AGFVFPIVDLIHGRPHALAR, the growth estimate was below -0.25. The figure for LDFRF is below -0.25; for CEALLMMSR it is below -0.25; for VSEFEH it is below -0.25. In the case of ETWDVSSSGNFA, the growth estimate was below -0.25. For VLGMA, the growth estimate was below -0.25.

In the case of FRPAGIWVYRSSTCPGGQNV, the growth estimate is -0.231. PLPLLGHDLPALL: the growth estimate was below -0.25. As to ITGDYLPVPSVCVSGLIGSG, the growth estimate is below -0.25. As for NHNARFSPWVPQAS, the growth estimate was below -0.25. ATT: the growth estimate is below -0.25. The figure for GSFYASLSKGLRGLL is below -0.25; for FRLKNLCSNGTVRFIGNSLD it is below -0.25; for LKSGGQSQNAIRRALLFGAN it is below -0.25. With KVPARGDRSIGDESSPLLRR, the growth estimate is below -0.25.

For KSHGRPVDWYVTGREEGVDV, the growth estimate is below -0.25.

On to SFVIG, for which the growth estimate was below -0.25. LYCLYWPRQLATTGGFLRRR: the growth estimate is below -0.25. The figure for RKS is below -0.25.

As to ITREAWDGNRREVLKSSPTC, the growth estimate is below -0.25.

For the substance TNTGAVIRNAEKAPPWDARN, the growth estimate was below -0.25. As to RCI, the growth estimate was below -0.25. With TRGYHIEYTNHPGGE, the growth estimate was below -0.25.

As for ASESGSSIP, the growth estimate is below -0.25. The value for RFSMWARAGS was below -0.25; that for QPTARC was below -0.25; that for LMSGRHVVFKEYSNLSPLLY was below -0.25. For YAEWG, the growth estimate is below -0.25. Consider SIRALNTLVVRYAFG, for which the growth estimate was below -0.25. GTIVGRQVGF: the growth estimate is below -0.25. The value for GLGETGVH was below -0.25; that for ASSWVSRCYVLGQSSH was below -0.25; that for WDIRMVLESCSLGR was below -0.25.

For NLCDSFHPTSFQASRCSWYK, the growth estimate was -0.206. For the substance SSPSLRSRAE, the growth estimate is below -0.25. As to VTEVKVPSRLESL, the growth estimate is below -0.25. The figure for FRMWCF is below -0.25; for NKRVLLNTVGDRHDSMASDL it is below -0.25. As for QPWERQPRCE, the growth estimate was below -0.25.

As to QALGVFR, the growth estimate was below -0.25. The value for CVHAAK was -0.0867. Consider SRHRTITVSTNL, for which the growth estimate was below -0.25.

Take RLHEGQTGSQIVWRLLFWSI: the growth estimate is below -0.25. Take IHRLCCFYETWVSLCPRSPG: the growth estimate is below -0.25.

As for LGTENRTMFLLGLVAPFTAS, the growth estimate is below -0.25. On to STTYFILFAIRFTLICASSV, for which the growth estimate was below -0.25.

With LYAMGRA, the growth estimate was below -0.25. Consider RGDLGASEGQSNRDAYAIAP, for which the growth estimate was below -0.25.

As for LSWGDVSGAGLARDYPLKLD, the growth estimate is 0.146.

In the case of ERRGSVGLIGSPGNTAAYDL, the growth estimate was below -0.25.

Turning to NIGKRLTSGSIAVLFRSVMN, the growth estimate is below -0.25. On to PADIRVIRFKHITVMPLCS, for which the growth estimate is below -0.25. For SEEANIIRLSTWQRY, the growth estimate was below -0.25. Consider YCDADRVSEARASGQPYDVA, for which the growth estimate is below -0.25. Take DCAY: the growth estimate was below -0.25. The value for RVVVVSGTLRLRYPRRNVLV was below -0.25; that for VSQSREFTDIDVGRAESVIR was below -0.25; that for QLVWKLDAQFAYYCSPNIPP was below -0.25.

As to VLEYLWVGRAAVR, the growth estimate is below -0.25. Regarding PVGGNRGR, the growth estimate was below -0.25.

Regarding RRYYT, the growth estimate was below -0.25. AVPE: the growth estimate is below -0.25. With MEPKGGTRTLGVV, the growth estimate was below -0.25. TSGNCLRAG: the growth estimate was below -0.25. The figure for HYQFINPHRGGLLQGRRPPS is below -0.25.

Regarding YSTIATNQYAKPY, the growth estimate is below -0.25. Regarding NTMEFDMLQLFMGRSQNRNY, the growth estimate is below -0.25.

Regarding GKELRCRGGTFR, the growth estimate is below -0.25.

Regarding TRSS, the growth estimate was below -0.25.

In the case of KKEGSIITRDRTVCNQSNQS, the growth estimate is below -0.25. As to VDFSTKSRRVGFFVRIHTR, the growth estimate was below -0.25. AVRMTNSRELNPKRRQRI: the growth estimate is below -0.25. On to WPR, for which the growth estimate was -0.246. Take PATHDGTIIVLRFMILIGSP: the growth estimate is -0.25. The figure for CQTRDQVGNL is below -0.25. The value for TVY was -0.243; that for WFCP was below -0.25. Turning to CACGIRPFVEAV, the growth estimate is below -0.25. The figure for SFVLMETVRLRPYILLPTPG is below -0.25; for GDCDGGILCVLALG it is below -0.25.

Consider SIEMNSMAM, for which the growth estimate is below -0.25. For PIPRYLWRRIAVFQRVS, the growth estimate was -0.231. For the substance TYVHKLYRDSGSMEQRHPEL, the growth estimate was below -0.25.

Take KGACLSIGVCCNGTSWDRHN: the growth estimate was below -0.25.

On to QLIAGAVFSRRPRQGR, for which the growth estimate is below -0.25.

(Values after the supplement of paper PMC5949888.)
